These are yes or no findings as the source states them, for the method shown. In cells and extracts the contact can be indirect. Some results given as binding are weak or reduced against the parent protein; the word gives no strength. Values belong to the substance of their own block, whether it stands above or below them.
Key:
[1] = biological target: DJ-1 WT fused with FLAG (human) (UniProt Q99497); test: co-IP; anti-FLAG immunoprecipitates of DJ-1 WT or mutants fused with FLAG in DJ-1 KO DNLCs, immunoblotted with anti-NENF or FLAG
[2] = biological target: DJ-1 (human (endogenous in NTera2 and in fibroblasts)) (UniProt Q99497); test: co-IP; PINK1 and DJ-1 immunoprecipitates (anti-PINK1, anti-DJ-1) in whole-cell extract and mt, ER and MAM lysates from ECSCs, DNLCs and mouse brain, immunoblotted with anti-NENF
[3] = biological target: PINK1 (PTEN-induced putative kinase 1) (human (endogenous in NTera2 and in fibroblasts)) (UniProt Q9BXM7); test: as above
[4] = biological target: T1, TOMM40 (human (endogenous in NTera2 and in skin fibroblasts)) (UniProt O96008); test: co-IP; fibroblasts of a healthy individual and of CI-deficient subjects with NDUF mutations; immunoblotted with anti-NDUFS1 or V1 antibody, band intensities normalized to GAPDH or healthy fibroblast input
T1 sequence: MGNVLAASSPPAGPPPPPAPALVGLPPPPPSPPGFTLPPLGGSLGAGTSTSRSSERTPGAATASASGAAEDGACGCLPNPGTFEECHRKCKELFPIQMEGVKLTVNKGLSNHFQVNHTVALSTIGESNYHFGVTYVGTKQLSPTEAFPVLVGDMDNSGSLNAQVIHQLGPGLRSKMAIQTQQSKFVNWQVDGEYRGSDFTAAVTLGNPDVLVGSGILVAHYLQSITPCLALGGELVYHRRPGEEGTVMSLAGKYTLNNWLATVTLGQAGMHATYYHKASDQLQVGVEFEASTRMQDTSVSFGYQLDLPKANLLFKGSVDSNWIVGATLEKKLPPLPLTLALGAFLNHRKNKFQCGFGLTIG

The chains behind the UniProt entries cited, without tags or fusion partners. Residues count along the entry.
UniProt Q9BXM7, residues 78-581: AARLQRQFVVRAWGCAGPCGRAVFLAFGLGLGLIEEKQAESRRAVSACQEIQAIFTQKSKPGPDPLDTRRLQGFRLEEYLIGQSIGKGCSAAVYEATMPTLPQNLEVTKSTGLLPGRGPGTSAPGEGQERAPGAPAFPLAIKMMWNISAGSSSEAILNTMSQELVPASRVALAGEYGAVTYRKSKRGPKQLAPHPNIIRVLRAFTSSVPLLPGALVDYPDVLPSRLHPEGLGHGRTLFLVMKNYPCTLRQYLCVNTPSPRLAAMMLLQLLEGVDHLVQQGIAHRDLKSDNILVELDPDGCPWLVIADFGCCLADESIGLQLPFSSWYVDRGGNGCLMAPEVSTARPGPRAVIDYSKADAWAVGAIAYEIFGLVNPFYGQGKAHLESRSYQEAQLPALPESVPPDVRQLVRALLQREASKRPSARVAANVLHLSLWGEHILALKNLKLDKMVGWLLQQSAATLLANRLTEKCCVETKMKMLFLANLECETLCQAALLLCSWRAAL
UniProt Q99MQ3: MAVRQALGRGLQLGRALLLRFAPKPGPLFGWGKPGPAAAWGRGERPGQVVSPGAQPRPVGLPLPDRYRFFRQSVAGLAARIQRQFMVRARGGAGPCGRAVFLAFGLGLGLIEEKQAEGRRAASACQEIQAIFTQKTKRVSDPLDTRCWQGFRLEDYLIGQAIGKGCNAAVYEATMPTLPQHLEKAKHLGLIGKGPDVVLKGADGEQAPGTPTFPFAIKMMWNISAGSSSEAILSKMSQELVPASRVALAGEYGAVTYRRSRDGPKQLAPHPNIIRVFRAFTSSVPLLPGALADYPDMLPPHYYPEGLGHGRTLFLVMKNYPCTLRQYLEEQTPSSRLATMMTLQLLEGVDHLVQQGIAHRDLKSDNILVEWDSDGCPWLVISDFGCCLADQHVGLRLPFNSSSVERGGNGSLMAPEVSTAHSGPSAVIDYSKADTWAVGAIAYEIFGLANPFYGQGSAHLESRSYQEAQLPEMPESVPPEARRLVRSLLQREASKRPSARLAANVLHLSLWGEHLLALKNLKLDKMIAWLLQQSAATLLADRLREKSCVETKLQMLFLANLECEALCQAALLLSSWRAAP
UniProt Q9UMX5, residues 32-172: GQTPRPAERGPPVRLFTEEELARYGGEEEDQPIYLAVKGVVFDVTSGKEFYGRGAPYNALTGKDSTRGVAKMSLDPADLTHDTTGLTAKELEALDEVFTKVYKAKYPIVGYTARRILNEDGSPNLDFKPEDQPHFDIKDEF
UniProt P28331, residues 24-727: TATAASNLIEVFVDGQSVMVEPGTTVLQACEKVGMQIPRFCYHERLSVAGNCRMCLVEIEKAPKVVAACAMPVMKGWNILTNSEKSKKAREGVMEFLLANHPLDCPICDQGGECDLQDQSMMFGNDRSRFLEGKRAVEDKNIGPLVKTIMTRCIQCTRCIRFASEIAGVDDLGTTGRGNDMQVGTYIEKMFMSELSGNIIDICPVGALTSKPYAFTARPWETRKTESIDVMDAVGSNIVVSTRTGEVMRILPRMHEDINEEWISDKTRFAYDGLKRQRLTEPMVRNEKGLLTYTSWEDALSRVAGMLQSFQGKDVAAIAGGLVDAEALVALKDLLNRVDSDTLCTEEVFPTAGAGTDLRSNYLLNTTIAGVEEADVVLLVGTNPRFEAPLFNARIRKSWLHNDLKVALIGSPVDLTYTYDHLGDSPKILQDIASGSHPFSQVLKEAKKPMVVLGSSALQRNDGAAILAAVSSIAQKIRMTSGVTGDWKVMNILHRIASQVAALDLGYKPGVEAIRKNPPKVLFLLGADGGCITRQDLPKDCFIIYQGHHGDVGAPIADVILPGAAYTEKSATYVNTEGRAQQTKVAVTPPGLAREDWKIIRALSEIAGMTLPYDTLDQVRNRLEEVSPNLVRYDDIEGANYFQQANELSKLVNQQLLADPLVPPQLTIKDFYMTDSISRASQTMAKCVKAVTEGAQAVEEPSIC
UniProt Q9CQ45, residues 31-171: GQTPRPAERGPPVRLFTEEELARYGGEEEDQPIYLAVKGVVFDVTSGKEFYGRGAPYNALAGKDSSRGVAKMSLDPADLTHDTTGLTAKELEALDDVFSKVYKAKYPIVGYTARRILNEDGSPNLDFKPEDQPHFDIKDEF

[5] = biological target: PINK1 (mouse brain) (mouse (endogenous in brain)) (UniProt Q99MQ3); test: co-IP; PINK1 and DJ-1 immunoprecipitates (anti-PINK1, anti-DJ-1) in whole-cell extract and mt, ER and MAM lysates from ECSCs, DNLCs and mouse brain, immunoblotted with anti-NENF
[6] = biological target: T2, DJ-1 (mouse brain) (mouse (endogenous in brain)) (UniProt Q99LX0); test: as above
T2 sequence: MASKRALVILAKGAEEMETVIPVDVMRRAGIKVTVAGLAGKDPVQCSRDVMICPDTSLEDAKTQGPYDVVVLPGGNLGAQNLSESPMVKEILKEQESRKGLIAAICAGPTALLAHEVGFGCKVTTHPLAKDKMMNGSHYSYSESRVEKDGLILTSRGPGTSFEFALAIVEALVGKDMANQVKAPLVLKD

binding [1]: binds | binding [2]: binds | binding [3]: binds
Substance: neuron-derived neurotrophic factor (NENF) (from UniProt Q9UMX5 32-172)

binding [4]: binds
Substance: NDUFS1 (from UniProt P28331 24-727)

binding [5]: binds | binding [6]: binds
Substance: NENF (mouse brain) (from UniProt Q9CQ45 31-171)

Source: article PMC6831851
